Experimental data from publication PMC10775674.
Results are given in words; binding and its absence hold for the method and conditions named. Binding seen in cells or lysates may run through a third protein. Some entries that bind do so weakly or less than the wild type. Tags and fused reporters may be left off the sequences shown. Blank lines part the entries; values can stand above or below the molecule they belong to.

Protein sequences, listed by entry. Tags and fused reporters are not part of them.
UniProt P08670: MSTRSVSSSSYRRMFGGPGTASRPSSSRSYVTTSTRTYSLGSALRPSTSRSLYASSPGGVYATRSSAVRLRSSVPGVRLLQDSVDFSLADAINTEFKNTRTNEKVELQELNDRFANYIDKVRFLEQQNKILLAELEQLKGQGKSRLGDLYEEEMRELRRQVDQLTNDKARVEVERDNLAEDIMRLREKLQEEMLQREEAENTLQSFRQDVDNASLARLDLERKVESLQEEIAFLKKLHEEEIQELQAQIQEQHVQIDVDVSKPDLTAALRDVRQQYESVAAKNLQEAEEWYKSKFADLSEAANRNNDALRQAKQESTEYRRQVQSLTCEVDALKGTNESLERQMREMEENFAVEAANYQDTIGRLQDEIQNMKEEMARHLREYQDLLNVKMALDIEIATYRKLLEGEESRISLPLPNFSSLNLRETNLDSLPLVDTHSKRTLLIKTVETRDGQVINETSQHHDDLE

Tests used:
[1] = target: T1, HA-NEURL3 (neuralized E3 ubiquitin protein ligase 3, HA-tagged) (UniProt Q96EH8); test: co-IP; HONE1 and SUNE1 cells transfected with HA-NEURL3; IP with anti-HA or anti-Vimentin antibody, Protein A/G magnetic beads, western blot
T1 sequence: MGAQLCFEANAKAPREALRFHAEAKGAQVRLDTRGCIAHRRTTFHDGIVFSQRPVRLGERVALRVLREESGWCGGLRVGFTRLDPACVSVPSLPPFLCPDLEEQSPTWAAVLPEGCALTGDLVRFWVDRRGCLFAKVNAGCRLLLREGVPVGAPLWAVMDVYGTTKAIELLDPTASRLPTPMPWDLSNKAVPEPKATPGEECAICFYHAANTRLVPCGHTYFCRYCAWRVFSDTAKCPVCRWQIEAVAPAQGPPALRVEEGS

[2] = target: endogenous Vimentin (human (endogenous in HONE1 and SUNE1)) (UniProt P08670); test: as above
[3] = target: Flag-tagged Vimentin (FL) (UniProt P08670); test: co-IP; 293T cells co-transfected with Flag-tagged Vimentin (FL or deletion mutants) and Myc-NEURL3; western blot

- binding [1]: binds
Molecule: endogenous Vimentin (from UniProt P08670 1-466)

- binding [2]: binds
B1: HA-NEURL3 (neuralized E3 ubiquitin protein ligase 3, HA-tagged) (enzyme, UniProt Q96EH8 1-262)
chain: T1 sequence

- binding [3]: binds
B2: Myc-NEURL3 (enzyme, UniProt Q96EH8 1-262)
chain: T1 sequence
